Source: paper PMC8738768
These are yes or no findings as the source states them, for the method shown. Binding seen in cells or lysates may run through a third protein. Some binding calls cover weakened binding; strength is not graded here.

Amino acid sequences for entries named in this document (tags omitted). Residues count along the entry.
UniProt P10809, residues 27-573: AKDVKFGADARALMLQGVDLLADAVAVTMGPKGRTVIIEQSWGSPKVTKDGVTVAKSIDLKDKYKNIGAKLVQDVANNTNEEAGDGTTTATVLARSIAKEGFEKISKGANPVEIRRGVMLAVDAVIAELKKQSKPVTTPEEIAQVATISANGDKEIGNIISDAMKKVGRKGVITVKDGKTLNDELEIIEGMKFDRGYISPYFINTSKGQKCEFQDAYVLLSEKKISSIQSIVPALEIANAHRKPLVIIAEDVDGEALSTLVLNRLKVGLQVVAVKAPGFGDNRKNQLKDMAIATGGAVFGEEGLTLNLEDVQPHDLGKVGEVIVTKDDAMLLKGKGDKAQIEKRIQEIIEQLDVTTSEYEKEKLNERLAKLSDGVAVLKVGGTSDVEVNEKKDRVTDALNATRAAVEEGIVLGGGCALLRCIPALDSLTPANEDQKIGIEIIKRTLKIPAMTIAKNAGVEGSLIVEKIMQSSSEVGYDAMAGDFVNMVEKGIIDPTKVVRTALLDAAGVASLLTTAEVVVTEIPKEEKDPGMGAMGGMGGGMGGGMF

Target: HSP60 (Heat shock 60 kDa protein 1) (human (endogenous in A375)) (UniProt P10809)
Test: co-IP; cytosolic fraction of A375 cells, 500 μg of proteins with primary antibody overnight at 4 °C, Protein AG Magnetic Beads 1.5 h at RT, western blot; basal condition or 2 h after MTX with or without KIRA6 (1 μM)

B1: IKKβ (protein, UniProt O14920 1-756)
chain: MSWSPSLTTQTCGAWEMKERLGTGGFGNVIRWHNQETGEQIAIKQCRQELSPRNRERWCLEIQIMRRLTHPNVVAARDVPEGMQNLAPNDLPLLAMEYCQGGDLRKYLNQFENCCGLREGAILTLLSDIASALRYLHENRIIHRDLKPENIVLQQGEQRLIHKIIDLGYAKELDQGSLCTSFVGTLQYLAPELLEQQKYTVTVDYWSFGTLAFECITGFRPFLPNWQPVQWHSKVRQKSEVDIVVSEDLNGTVKFSSSLPYPNNLNSVLAERLEKWLQLMLMWHPRQRGTDPTYGPNGCFKALDDILNLKLVHILNMVTGTIHTYPVTEDESLQSLKARIQQDTGIPEEDQELLQEAGLALIPDKPATQCISDGKLNEGHTLDMDLVFLFDNSKITYETQISPRPQPESVSCILQEPKRNLAFFQLRKVWGQVWHSIQTLKEDCNRLQQGQRAAMMNLLRNNSCLSKMKNSMASMSQQLKAKLDFFKTSIQIDLEKYSEQTEFGITSDKLLLAWREMEQAVELCGRENEVKLLVERMMALQTDIVDLQRSPMGRKQGGTLDDLEEQARELYRRLREKPRDQRTEGDSQEMVRLLLQAIQSFEKKVRVIYTQLSKTVVCKQKALELLPKVEEVVSLMNEDEKTVVRLQEKRQKELWNLLKIACSKVRGPVSGSPDSMNASRLSQPGQLMSQPSTASNSLPEPAKKSEELVAEAHNLCTLLENAIQDTVREQDQSFTALDWSWLQTEEEEHSCLEQAS
Q: B1 was tested. Which binding did it give?
A: Its binding is “binds”.
